Earlier results on 1 compound are cited in paper PMC9915011, “Polymyxin B Conjugates with Bio-Inspired Synthetic Polymers of Different Nature” (International Journal of Molecular Sciences, 2023).

Converted amounts (≈) assume the structure as drawn.

This series deals with S. aureus. The settings on record: cited from earlier work. From the text: A series of conjugates of loracarbef (cephalosporins) and ciprofloxacin (fluroquinolones) with sideromycins (siderophores) was synthesized and tested against a panel of ESKAPEE bacteria (Enterococcus faecium, S. aureus, Klebsiella pneumoniae, A. baumannii, P. aeruginosa, Enterobacter aerogenes, E. coli).

As to `O=C(O)c1cn(C2CC2)c2cc(N3CCNCC3)c(F)cc2c1=O` [ciprofloxacin], the minimum inhibitory concentration (MIC) is listed as 0.5 µM (≈ 0.166 µg/mL).
